{
  "source": "the supplement of paper PMC6411743",
  "experiment_in_all_cases": "NP40-soluble protein abundance relative to vehicle (solubility fold change) (ratio); higher = more soluble protein in presence of ATP",
  "key": {"STRBP": {"molecular_target": "T1, STRBP (UniProt Q96SI9)", "T1 sequence (whole entry)": "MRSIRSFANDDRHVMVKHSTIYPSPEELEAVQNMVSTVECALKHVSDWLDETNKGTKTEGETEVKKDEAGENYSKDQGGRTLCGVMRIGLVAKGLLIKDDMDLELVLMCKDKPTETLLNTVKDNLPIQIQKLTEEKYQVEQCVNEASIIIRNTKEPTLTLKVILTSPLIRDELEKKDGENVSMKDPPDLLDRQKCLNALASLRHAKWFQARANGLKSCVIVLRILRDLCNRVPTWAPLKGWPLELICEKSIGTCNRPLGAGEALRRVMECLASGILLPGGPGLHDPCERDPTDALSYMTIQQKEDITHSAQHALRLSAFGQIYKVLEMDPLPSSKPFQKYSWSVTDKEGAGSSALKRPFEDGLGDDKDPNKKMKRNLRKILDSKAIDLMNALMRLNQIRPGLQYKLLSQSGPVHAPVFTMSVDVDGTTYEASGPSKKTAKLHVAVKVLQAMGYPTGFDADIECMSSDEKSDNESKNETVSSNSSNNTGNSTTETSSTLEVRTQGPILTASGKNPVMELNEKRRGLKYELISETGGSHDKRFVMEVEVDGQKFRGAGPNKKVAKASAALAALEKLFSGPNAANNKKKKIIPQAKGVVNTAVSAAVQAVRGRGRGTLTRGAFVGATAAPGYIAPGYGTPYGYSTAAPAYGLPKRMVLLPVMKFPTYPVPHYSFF", "summary_of_the_method": "(§1)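 Across three independent experiments, values are fold changes against the detergent-processed vehicle for each replicate, based on vsn-normalised intensities. The samples were Jurkat crude lysate treated with eight concentrations (0.1 to 10 mM) for 10 min at room temperature and then 3 min at 37 °C. Lysate was solubilised with 0.8% NP40 and benzonase, ultracentrifuged, and the supernatant analysed by TMT-labelled LC-MS/MS.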"}, "TP53RK": {"molecular_target": "T2, TP53RK (UniProt Q96S44)", "T2 sequence (whole entry)": "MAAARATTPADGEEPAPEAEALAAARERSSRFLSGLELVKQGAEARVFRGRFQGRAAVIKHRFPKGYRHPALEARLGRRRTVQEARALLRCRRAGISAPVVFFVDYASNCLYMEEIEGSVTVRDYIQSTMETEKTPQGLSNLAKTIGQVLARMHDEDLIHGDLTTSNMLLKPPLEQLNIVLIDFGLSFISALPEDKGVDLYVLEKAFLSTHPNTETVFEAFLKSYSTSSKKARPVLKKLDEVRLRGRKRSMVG", "summary_of_the_method": "as §1"}, "[1]": {"molecular_target": "T3, UniProt Q96BZ9 and related entries", "T3 sequence (whole entry)": "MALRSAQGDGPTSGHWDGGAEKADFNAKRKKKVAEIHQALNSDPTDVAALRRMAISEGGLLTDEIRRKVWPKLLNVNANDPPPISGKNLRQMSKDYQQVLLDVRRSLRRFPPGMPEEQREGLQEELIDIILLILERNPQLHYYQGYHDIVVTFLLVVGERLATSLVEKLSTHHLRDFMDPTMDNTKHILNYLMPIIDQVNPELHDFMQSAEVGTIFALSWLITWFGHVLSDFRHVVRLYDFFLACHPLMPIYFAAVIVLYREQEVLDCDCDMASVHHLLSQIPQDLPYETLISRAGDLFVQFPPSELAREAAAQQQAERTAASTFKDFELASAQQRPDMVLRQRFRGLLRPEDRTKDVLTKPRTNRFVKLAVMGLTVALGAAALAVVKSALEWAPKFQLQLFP", "summary_of_the_method": "as §1"}, "[2]": {"molecular_target": "T4, UniProt Q96F46 and related entries", "T4 sequence (whole entry)": "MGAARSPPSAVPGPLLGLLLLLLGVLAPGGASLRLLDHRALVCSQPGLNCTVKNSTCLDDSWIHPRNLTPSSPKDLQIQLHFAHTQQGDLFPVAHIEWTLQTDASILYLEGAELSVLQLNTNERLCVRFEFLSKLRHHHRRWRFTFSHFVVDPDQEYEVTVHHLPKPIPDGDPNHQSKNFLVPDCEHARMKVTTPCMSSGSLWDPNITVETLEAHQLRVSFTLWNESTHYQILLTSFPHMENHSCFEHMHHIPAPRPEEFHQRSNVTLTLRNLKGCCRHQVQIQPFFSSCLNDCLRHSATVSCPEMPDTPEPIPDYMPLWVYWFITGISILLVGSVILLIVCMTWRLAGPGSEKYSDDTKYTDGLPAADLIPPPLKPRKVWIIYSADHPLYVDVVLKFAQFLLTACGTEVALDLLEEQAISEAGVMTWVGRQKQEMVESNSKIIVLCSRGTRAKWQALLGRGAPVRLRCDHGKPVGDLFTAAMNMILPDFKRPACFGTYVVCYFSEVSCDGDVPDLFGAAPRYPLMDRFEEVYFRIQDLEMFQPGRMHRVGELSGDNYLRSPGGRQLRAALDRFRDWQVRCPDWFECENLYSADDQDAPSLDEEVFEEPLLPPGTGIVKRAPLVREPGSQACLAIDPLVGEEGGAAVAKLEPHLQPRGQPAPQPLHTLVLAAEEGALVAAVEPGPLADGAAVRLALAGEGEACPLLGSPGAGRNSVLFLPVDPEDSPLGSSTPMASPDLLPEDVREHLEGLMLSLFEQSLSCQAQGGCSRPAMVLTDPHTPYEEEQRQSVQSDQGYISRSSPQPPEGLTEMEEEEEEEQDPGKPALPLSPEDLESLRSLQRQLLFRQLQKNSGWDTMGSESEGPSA", "summary_of_the_method": "as §1"}, "[3]": {"molecular_target": "T5, UniProt Q96FC9 and related entries", "T5 sequence (whole entry)": "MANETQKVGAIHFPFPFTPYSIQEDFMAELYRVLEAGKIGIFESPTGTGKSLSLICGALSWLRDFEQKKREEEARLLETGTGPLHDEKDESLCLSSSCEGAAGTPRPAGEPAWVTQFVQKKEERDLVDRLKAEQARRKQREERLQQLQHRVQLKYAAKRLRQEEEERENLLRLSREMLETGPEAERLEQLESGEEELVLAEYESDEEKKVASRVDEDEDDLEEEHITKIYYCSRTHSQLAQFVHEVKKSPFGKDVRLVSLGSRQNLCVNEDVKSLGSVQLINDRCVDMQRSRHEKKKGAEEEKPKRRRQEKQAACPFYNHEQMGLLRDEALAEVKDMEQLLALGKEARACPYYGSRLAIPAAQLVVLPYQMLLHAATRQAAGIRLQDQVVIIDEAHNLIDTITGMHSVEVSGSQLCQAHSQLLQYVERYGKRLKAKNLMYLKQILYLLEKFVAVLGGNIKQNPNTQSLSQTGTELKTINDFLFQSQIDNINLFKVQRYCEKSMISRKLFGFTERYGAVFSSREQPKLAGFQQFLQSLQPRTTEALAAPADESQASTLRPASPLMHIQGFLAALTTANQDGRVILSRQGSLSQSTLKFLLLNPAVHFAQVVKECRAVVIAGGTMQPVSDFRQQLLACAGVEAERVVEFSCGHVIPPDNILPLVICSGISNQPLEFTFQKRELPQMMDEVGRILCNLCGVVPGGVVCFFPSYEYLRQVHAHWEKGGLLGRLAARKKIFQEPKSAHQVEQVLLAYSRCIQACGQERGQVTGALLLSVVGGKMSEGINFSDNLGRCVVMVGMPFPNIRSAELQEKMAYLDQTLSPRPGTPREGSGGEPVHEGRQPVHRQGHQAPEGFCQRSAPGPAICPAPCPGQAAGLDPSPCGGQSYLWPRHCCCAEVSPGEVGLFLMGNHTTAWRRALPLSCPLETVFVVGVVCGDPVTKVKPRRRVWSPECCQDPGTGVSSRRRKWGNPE", "summary_of_the_method": "as §1"}},
  "note": "± gives the standard deviation of the averaged measurements. This is a selection; strong and weak results do not stand in their true shares.",
  "data": [
    {"smiles": "Nc1ncnc2c1ncn2[C@@H]1O[C@H](COP(=O)(O)OP(=O)(O)OP(=O)(O)O)[C@@H](O)[C@H]1O", "note": "[adenosine triphosphate]", "values": [
      {"measurement": "NP40-soluble protein abundance", "setting": "STRBP; concentration: 1mM", "result": "1.01 ± 0.044"},
      {"measurement": "NP40-soluble protein abundance", "setting": "STRBP; concentration: 2mM", "result": "1.05 ± 0.066"},
      {"measurement": "NP40-soluble protein abundance", "setting": "STRBP; concentration: 4mM", "result": "1.08 ± 0.058"},
      {"measurement": "NP40-soluble protein abundance", "setting": "STRBP; concentration: 6mM", "result": "1.06 ± 0.023"},
      {"measurement": "NP40-soluble protein abundance", "setting": "STRBP; concentration: 8mM", "result": "1.16 ± 0.09"},
      {"measurement": "NP40-soluble protein abundance", "setting": "STRBP; concentration: 10mM", "result": "1.24 ± 0.1"},
      {"measurement": "NP40-soluble protein abundance", "setting": "TP53RK; concentration: 1mM", "result": "0.9403 ± 0.009"},
      {"measurement": "NP40-soluble protein abundance", "setting": "TP53RK; concentration: 2mM", "result": "0.9552 ± 0.0089"},
      {"measurement": "NP40-soluble protein abundance", "setting": "TP53RK; concentration: 4mM", "result": "0.903 ± 0.036"},
      {"measurement": "NP40-soluble protein abundance", "setting": "TP53RK; concentration: 6mM", "result": "0.921 ± 0.057"},
      {"measurement": "NP40-soluble protein abundance", "setting": "TP53RK; concentration: 8mM", "result": "0.9386 ± 0.0064"},
      {"measurement": "NP40-soluble protein abundance", "setting": "TP53RK; concentration: 10mM", "result": "0.911 ± 0.014"},
      {"measurement": "NP40-soluble protein abundance", "setting": "[1]; concentration: 1mM", "result": "0.982 ± 0.022"},
      {"measurement": "NP40-soluble protein abundance", "setting": "[1]; concentration: 2mM", "result": "0.941 ± 0.1"},
      {"measurement": "NP40-soluble protein abundance", "setting": "[1]; concentration: 4mM", "result": "0.937 ± 0.15"},
      {"measurement": "NP40-soluble protein abundance", "setting": "[1]; concentration: 6mM", "result": "1 ± 0.08"},
      {"measurement": "NP40-soluble protein abundance", "setting": "[1]; concentration: 8mM", "result": "0.939 ± 0.065"},
      {"measurement": "NP40-soluble protein abundance", "setting": "[1]; concentration: 10mM", "result": "0.944 ± 0.091"},
      {"measurement": "NP40-soluble protein abundance", "setting": "[2]; concentration: 1mM", "result": "0.934 ± 0.073"},
      {"measurement": "NP40-soluble protein abundance", "setting": "[2]; concentration: 2mM", "result": "0.969 ± 0.043"},
      {"measurement": "NP40-soluble protein abundance", "setting": "[2]; concentration: 4mM", "result": "0.974 ± 0.078"},
      {"measurement": "NP40-soluble protein abundance", "setting": "[2]; concentration: 6mM", "result": "0.9 ± 0.035"},
      {"measurement": "NP40-soluble protein abundance", "setting": "[2]; concentration: 8mM", "result": "0.964 ± 0.068"},
      {"measurement": "NP40-soluble protein abundance", "setting": "[2]; concentration: 10mM", "result": "0.966 ± 0.03"},
      {"measurement": "NP40-soluble protein abundance", "setting": "[3]; concentration: 1mM", "result": "1.08 ± 0.11"},
      {"measurement": "NP40-soluble protein abundance", "setting": "[3]; concentration: 2mM", "result": "1.01 ± 0.088"},
      {"measurement": "NP40-soluble protein abundance", "setting": "[3]; concentration: 4mM", "result": "1.1 ± 0.022"},
      {"measurement": "NP40-soluble protein abundance", "setting": "[3]; concentration: 6mM", "result": "0.998 ± 0.076"},
      {"measurement": "NP40-soluble protein abundance", "setting": "[3]; concentration: 8mM", "result": "1.03 ± 0.06"},
      {"measurement": "NP40-soluble protein abundance", "setting": "[3]; concentration: 10mM", "result": "0.988 ± 0.086"}
    ]}
  ]
}
